{"source": "paper PMC3808539", "about": "“CtpB Assembles a Gated Protease Tunnel Regulating Cell-Cell Signaling during Spore Formation in Bacillus subtilis” (Cell, 2013)", "target": "T1, peptide NH2-…-COOH (spot 594 of the inverted peptide array) (B. subtilis)", "T1 sequence (peptide)": "NLVLAGLHSYA", "experiment": "peptide or protein array; inverted peptides (free C termini) on a cellulose membrane; incubated with CtpB variant 10 μg/ml overnight at 4°C, TBS pH 8.0; detected with anti-polyHis antibody; both purified", "note": "No constants are given. Whether binding was seen depends on the method and setting. Binding calls can cover weak binding; strength is not graded here.", "data": [{"substance": "isolated PDZ domain of CtpB (B. subtilis) (domain or fragment)", "values": [{"measurement": "binding", "result": "binds"}]}]}
